US10174075 (dated 2019)

Assay: general procedure: solution-phase peptide synthesis; EDC/HOOBt; HBTU/DIPEA; EDC/HOBt
Conditions: TPB salt, HCl salt
[1] = coupling step, based on NMR content

## 2HCl.H-Trp-Arg-Arg-Lys(Boc)-NH2
Late stage modification step, based on the titration
  step yield: 95%

## 2HCl.H-Trp-Trp-Pro-Trp-Arg-Arg-Lys(Boc)-NH2
Late stage modification step, based on titration
  step yield: 82%

## RWPWWPWRRK
Late stage modification step, based on NMR content measurement
  step yield: 93%

## Z-Arg-Trp-Pro-Trp-Trp-Pro-Trp-Arg-Arg-Lys(Boc)-NH2.3TPB
[1]
  step yield: 87%

## Z-Trp-Arg-Arg-Lys(Boc)-NH2.2TPB
Coupling step, based on titration content
  step yield: 83%

## Z-Trp-Trp-Pro-Trp-Arg-Arg-Lys(Boc)-NH2.2TPB
[1]
  step yield: 98%

Ends that are not written are not given here.
